Laboratory results: PubChem BioAssay AID1259278 (Sanger Institute, 2017)

- Purpose: 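Follow-up of kinome siRNA hits that combine with three anchor drugs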 (follow-up of hits)
- Cell system: human HT55 colorectal cancer cells
- Knock-down reagent: single siRNA against human genes
- Conditions: anchor drugs added to knock-down cells: cetuximab 5 µg/ml, trametinib 10 nM or BYL719 1 µM, against DMSO vehicle; chosen to hurt viability little alone
- Measured: 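Viability averaged against the control control pool 2 (non-targeting), plus a synergy score of knock-down with drug for each anchor drug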
- Reading the numbers: synergy score with BYL719 and synergy score with cetuximab and synergy score with trametinib: higher = stronger combined killing with knock-down
- Call rule: 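a synergy score over 0.10 with BYL719, cetuximab or trametinib makes the knock-down a hit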
- Calls: active = synergy with an anchor drug; inactive = no synergy
Shown is a random part of 160 reagents tested. 54 of them (34%) count as active. 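Each call rests on one siRNA duplex in one cell line; gene-level support needs several duplexes and lines.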 Not all columns of the deposit are shown. Reagent sequences are not shown. The record does not give: the amount of reagent, the time to read-out.

| target gene | PubChem SID | synergy score with BYL719 | synergy score with cetuximab | synergy score with trametinib | Outcome |
| --- | --- | --- | --- | --- | --- |
| CHD4 (chromodomain helicase DNA binding protein 4) | SID134247681 | 0.0139 | 0.0263 | 0.0762 | inactive |
| CHD4 (chromodomain helicase DNA binding protein 4) | SID134247682 | -0.0567 | 0.0399 | 0.0642 | inactive |
| CHD4 (chromodomain helicase DNA binding protein 4) | SID134247683 | -0.0676 | 0.0565 | 0.0357 | inactive |
| CHD4 (chromodomain helicase DNA binding protein 4) | SID134247684 | -0.131 | -0.021 | 0.0303 | inactive |
| PRAG1 (PEAK1 related, kinase-activating pseudokinase 1) | SID56478455 | -0.196 | -0.0315 | -0.115 | inactive |
| PRAG1 (PEAK1 related, kinase-activating pseudokinase 1) | SID56478456 | -0.137 | -0.0825 | 0.0168 | inactive |
| PRAG1 (PEAK1 related, kinase-activating pseudokinase 1) | SID56478457 | -0.0883 | 0.166 | -0.261 | active |
| PRAG1 (PEAK1 related, kinase-activating pseudokinase 1) | SID56478458 | -0.149 | 0.015 | 0.115 | active |
| CRIM1 (cysteine rich transmembrane BMP regulator 1) | SID134243173 | -0.141 | 0.0372 | -0.0189 | inactive |
| CRIM1 (cysteine rich transmembrane BMP regulator 1) | SID134243174 | -0.103 | 0.0962 | -0.0191 | inactive |
| CRIM1 (cysteine rich transmembrane BMP regulator 1) | SID134243175 | -0.287 | 0.0177 | -0.092 | inactive |
| CRIM1 (cysteine rich transmembrane BMP regulator 1) | SID134243176 | -0.0431 | 0.0763 | 0.0552 | inactive |

Ordered by “synergy score with cetuximab” (descending): some entries from above.
| target gene | PubChem SID | synergy score with BYL719 | synergy score with cetuximab | synergy score with trametinib | Outcome |
| --- | --- | --- | --- | --- | --- |
| CHD4 (chromodomain helicase DNA binding protein 4) | SID134247684 | -0.131 | -0.021 | 0.0303 | inactive |
| PRAG1 (PEAK1 related, kinase-activating pseudokinase 1) | SID56478455 | -0.196 | -0.0315 | -0.115 | inactive |
